Experimental data: PubChem BioAssay AID1347076 (National Center for Advancing Translational Sciences (NCATS), 2019)
About 13,000 (3.2%) of roughly 400,000 compounds were called active. Inconclusive means that the source gave no clear call. Such entries were picked first, then a sample of the others. The call rests on the fitted dose curve; in most records, active means well fitted cell-killing curve with a large enough effect; inconclusive means small, poorly fitted or top-dose-only effect, or effect the other way; inactive means flat fitted curve, though single readings scatter. A potency beside an inconclusive call is a rough fit, not a confirmed value.

test: qHTS assay for MDR1-selective chemotherapeutics: Primary screen using the drug-selected MDR subline cells KB-V1; conditions: KB-V1 MDR cells viability, CellTiter-Glo, 72 h; activity change, negative = cytotoxicity: at 46.1 µM (top of the series); further: nearly all actives have a fitted effect of over 60% in size
Method in brief: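 KB-V1, DMEM (no phenol red) + 10% FBS; cpd pin-transferred, titration series; 72 h, 37 degrees C; CellTiter-Glo, luminescence. Data normalized, curve-fit.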
On the % scale 0 is the no-effect control and ±100 the full control effect; potency means the concentration at half of the fitted maximal effect.

Row | SMILES | Potency | activity change, negative = cytotoxicity
1 | COc1cc(/C=C(\C#N)c2ccccn2)ccc1OCc1ccccc1Cl | active: 10.3 µM | 
2 | CCOc1ccc(CNC(=O)c2ccc(Sc3ccc(Cl)cc3)c(NC(C)=O)c2)cc1 | active: 8.2 µM | 
3 | CCOC(=O)[C@]12CCCC=C1N(Cc1ccccc1)C(=O)[C@H](CC(=O)N1CCN(C(=O)c3ccco3)CC1)C2 |  | inactive: -10.9%
4 | CCOc1ccc(NC(=O)/C=C/c2ccccc2)c([N+](=O)[O-])c1 | inconclusive: 6.51 µM [cytotoxic, partial curve] | 
5 | COCCNC(=O)Cc1c(C)c2c(cc(C)c3c(C)coc32)oc1=O | inconclusive: 0.651 µM [cytotoxic, full curve, poor fit] | 
6 | COc1cccc(NC(=S)NC2CC(C)CC(C)(C)C2)c1 (stereo not drawn) | inconclusive: 16.4 µM [cytotoxic, single point] | 
7 | Cc1ccc(-n2nc3c(N4CCC(C(=O)N5CCN(C)CC5)CC4)nnc(C)c3c2C)cc1 | inconclusive: 29.1 µM [rising, single point] | 
8 | Cc1ccc(/C=N/NC(=O)c2nnn(-c3nonc3N)c2CSc2ccc(Cl)cc2)cc1 |  | inconclusive: -23.8%
9 | CCOc1ccc(NC(=O)c2cc3sc(Cl)cc3n2CC)cc1 | inconclusive: 29.1 µM [rising, single point] | 
10 | Cc1ccc(S(=O)(=O)c2cn(Cc3cccc(F)c3)c3cc(N4CCCC4)c(F)cc3c2=O)cc1 |  | inactive: -13.4%
11 | O=C(CN1C(=O)S/C(=C\c2ccc(Cl)cc2)C1=O)NC1C=CS(=O)(=O)C1 (stereo not drawn) |  | inactive: -0.839%
12 | COc1cc(OC)c(OC)cc1CNC(=O)c1ccc(S(=O)(=O)N2CCCCC2)cc1 | active: 7.31 µM | 
13 | CC(C)c1ccc(O)c(NC(=S)NC(=O)c2cccnc2)c1 | inconclusive: 29.1 µM [cytotoxic, single point] | 
14 | CCCOc1ccccc1-c1nc(SCC(=O)c2ccccc2)n[nH]1 |  | inactive: -6.65%
15 | COc1ccc(-c2noc(Cn3cc(S(=O)(=O)N4CCCC4)ccc3=O)n2)cc1 | active: 5.8 µM | 
16 | NC(=S)N/N=C/c1ccc([N+](=O)[O-])cc1 | inconclusive: 11.6 µM [cytotoxic, partial curve, poor fit] | 
17 | CC1(C(=O)NS(=O)(=O)c2cccc(F)c2)CCN1C(=O)Cc1ccccc1 (stereo not drawn) |  | inactive: 0.263%
18 | NS(=O)(=O)c1ccc(S(=O)(=O)N2CCN(c3nc(-c4cccs4)nc4ccccc34)CC2)cc1 |  | inactive: 26%
19 | CCCNC(=O)NNC(=O)c1ccc(F)cc1 | inconclusive: 18.4 µM [rising, partial curve, poor fit] | 
20 | O=S(=O)(c1ccc(Br)s1)N1CCN(c2ccnc3cc(Cl)ccc23)CC1 | inconclusive: 5.8 µM [cytotoxic, partial curve] | 
21 | O=C(NCCc1ccc(F)cc1)c1ccc2c(=O)n3c(nc2c1)CCC3 | inconclusive: 14.6 µM [cytotoxic, partial curve, poor fit] | 
22 | CCCN1CNc2c(c(=O)[nH]c(=S)n2CCc2ccccc2)C1 | inconclusive: 20.6 µM [cytotoxic, single point] | 
23 | O=C(Nc1nc2nc(-c3ccccc3)cc(-c3ccccc3)n2n1)c1ccco1 |  | inactive: -14.6%

Row | SMILES | Potency | activity change, negative = cytotoxicity
24 | Nn1cnnc1SC1CCCCC1NS(=O)(=O)c1ccccc1 (stereo not drawn) |  | inactive: 0%
25 | COC(=O)[C@@]12CCCN1[C@H](c1ccc(-c3ccc(OC)cc3)cc1)[C@@H]1C(=O)N(C)C(=O)[C@@H]12 |  | inactive: -16.6%
26 | Cc1cc(C)n(C(C)CC(=O)NCc2ccccc2C)n1 (stereo not drawn) |  | inactive: 3.68%
27 | c1ccc2c(c1)nc1n2CCN1CCN1CCCC1 | inconclusive: 23.1 µM [rising, single point] | 
28 | O=C(CN(CC1CCCO1)C(=O)CNS(=O)(=O)c1ccc(F)cc1)NCc1ccc(F)cc1 (stereo not drawn) |  | inactive: 8.43%
29 | C#CCOCCOCCOCCNc1nc(N2CCN(C(=O)[C@H](C)n3cc(CCC(=O)O)nn3)CC2)nc(N2CCN(C(=O)[C@H](Cc3ccc(O)cc3)n3cc(CCO)nn3)CC2)n1 | inconclusive: 4.61 µM [rising, full curve] | 
30 | COC(=O)c1c(NC(=O)c2cc(=O)c3c(C)cc(C)cc3o2)sc2c1CCCC2 | inconclusive: 16.4 µM [rising, single point] | 
31 | CCCCCCCCN1C(=O)[C@H](CC(=O)N2CCSCC2)C[C@@]2(C(=O)OC)CCCCC=C12 | inconclusive: 4.11 µM [cytotoxic, partial curve] | 
32 | O=C1NC(NS(=O)(=O)c2ccc(Cl)cc2)(C(F)(F)F)C(=O)N1c1ccccc1 (stereo not drawn) | inconclusive: 11.6 µM [rising, partial curve] | 
33 | CC1CCC(C(C)C)C(NC(=O)c2ccncc2)C1 (stereo not drawn) |  | inactive: 5.58%
34 | Cn1ccc2c(-c3ccc(F)cc3)cc3c(c21)C1CCC3C1 (stereo not drawn) |  | inactive: 13.5%
35 | Cc1ccccc1OCC(=O)Nc1ccc(C(=O)Nc2ccccc2C(=O)O)cc1 | inconclusive: 20.6 µM [rising, single point] | 
36 | CC(=O)Nc1ccc(-c2ccnc3c2CC(C)(C(=O)NCc2ccco2)O3)cc1 (stereo not drawn) |  | inactive: -28.2%
37 | CO/N=C(/CNC(=O)c1ccc(Cl)cc1Cl)c1ccc(Cl)cc1 | inconclusive: 18.4 µM [cytotoxic, partial curve] | 
38 | CCN1C(=O)/C(=C\C=C\c2ccccc2[N+](=O)[O-])SC1=S | inconclusive: 29.1 µM [cytotoxic, single point] | 
39 | Cc1ccc(-n2ncc3c(N4CCN(c5ccccc5)CC4)ncnc32)cc1C |  | inactive: 8.53%
40 | Cc1ccc([N+](=O)[O-])cc1NC(=O)c1ccc(CSc2ccccc2)cc1 | inconclusive: 6.51 µM [cytotoxic, partial curve] | 
41 | CCC(C(=O)NC1CCCC1)n1c(C2CC2)nc2ccccc21 (stereo not drawn) | inconclusive: 16.4 µM [cytotoxic, single point] | 
42 | O=C(O)CN(c1ccc2c(c1)OCCO2)S(=O)(=O)c1ccccc1 | inconclusive: 29.1 µM [rising, single point] | 
43 | O=C(NC1CCCCC1)C1CCCN1S(=O)(=O)c1ccc(Cl)cc1 (stereo not drawn) | inconclusive: 29.1 µM [cytotoxic, single point] | 
44 | CN(CC(=O)Nc1ccccc1Cl)C(=O)COC(=O)c1cnccn1 | inconclusive: 14.6 µM [rising, partial curve, poor fit] | 
45 | CC1(C)Nc2cccc3c(N=Nc4ccc(N=Nc5ccccc5)c5ccccc45)ccc(c23)N1 | inconclusive: 10.3 µM [cytotoxic, partial curve, poor fit] | 
46 | COc1ccc(CN2CCNC(=O)C2CC(=O)NC2CCCCC2)c(OC)c1 (stereo not drawn) |  | inactive: 1.02%

Row | SMILES | Potency | activity change, negative = cytotoxicity
47 | CC(=O)N1CCCc2cc(S(=O)(=O)N3CCC(C(=O)N(Cc4ccccc4)C(C)C)CC3)ccc21 |  | inactive: -21.9%
48 | O=C(NC1CCN(C(=O)N2c3ccccc3Sc3ccccc32)CC1)c1ccccc1Cl | inconclusive: 23.1 µM [cytotoxic, single point] | 
49 | COc1ccc2cc(CN(Cc3ccco3)C(=S)NCC3CCCO3)c(=O)[nH]c2c1 (stereo not drawn) | inconclusive: 14.6 µM [cytotoxic, partial curve, poor fit] | 
50 | CC1(C(=O)NCc2ccccc2)CSCC(=O)N1CCOc1ccccc1 (stereo not drawn) | inconclusive: 14.6 µM [cytotoxic, partial curve, poor fit] | 
51 | CCOC(=O)c1c(NC(=O)COC(=O)c2ccc(C)s2)sc2c1CC(C)(C)NC2(C)C |  | inactive: -6.97%
52 | Cc1cccc(N2CCN(C(=O)c3cccc(NC4=NC5CS(=O)(=O)CC5S4)c3)CC2)c1C (stereo not drawn) | inconclusive: 10.3 µM [rising, partial curve, poor fit] | 
53 | COc1cccc(C(=O)NNc2c3ccccc3nc3ccccc23)c1 | inconclusive: 8.2 µM [cytotoxic, partial curve] | 
54 | CN(CC(=O)N1CC=C(c2ccccc2)CC1)S(=O)(=O)c1ccc2c(c1)c(=O)n(C)c(=O)n2C |  | inactive: 0%
55 | CCc1ccccc1Nc1cc(C(=O)NCc2ccc(C)cc2)c2ccccc2n1 |  | inactive: 24.7%
56 | CCCNC(=O)CSCc1nc(-c2ccc(SC)cc2)oc1C | inconclusive: 16.4 µM [cytotoxic, partial curve, poor fit] | 
57 | COc1ccc(NC(=O)Cn2c(=O)n(-c3ccccc3)c(=O)c3oc4ccccc4c32)c(OC)c1 | inconclusive: 5.8 µM [cytotoxic, full curve] | 
58 | COc1ccc(C(=O)/C=C/Nc2ccc(S(=O)(=O)Nc3nc(C)cc(C)n3)cc2)cc1OC | inconclusive: 18.4 µM [cytotoxic, single point] | 
59 | COc1ccc(/C=C/C(=O)C23CC4CC(CC(C4)C2)C3)cc1CN1CCOCC1 | inconclusive: 23.1 µM [cytotoxic, single point] | 
60 | CC(=O)c1ccc(C(=O)N2CCC(CO)(Cc3cccc(C(F)(F)F)c3)CC2)cc1 |  | inactive: -10.6%
61 | CCOC(=O)c1c(C)c(C(=O)NCCCN2CCCC2=O)c(C)n1CC | inconclusive: 11.6 µM [cytotoxic, partial curve] | 
62 | CC(OCC(O)CN1CCN(S(=O)(=O)c2ccc(Cl)cc2)CC1)c1ccc(Cl)cc1 (stereo not drawn) | inconclusive: 14.6 µM [cytotoxic, partial curve] | 
63 | CC(=O)N1CCC(N(CCN2CCOCC2)C(=S)Nc2cc(C)ccc2C)CC1 | inconclusive: 16.4 µM [cytotoxic, partial curve] | 
64 | Cc1cc[n+](CC#N)cc1 | inconclusive: 16.4 µM [rising, partial curve, poor fit] | 
65 | Cc1ccc(Cl)cc1NC(=O)CN1C=NS(=O)(=O)c2ccccc21 | inconclusive: 16.4 µM [rising, single point] | 
66 | N#Cc1ccc(COn2nnc3ccccc32)cc1 |  | inactive: -13.1%
67 | NCCNc1ccc(C(=O)N2c3ccccc3Sc3ccccc32)cc1[N+](=O)[O-] | active: 20.6 µM | 
68 | CCOC(=O)c1cnc2c(OC)cccc2c1N1CCN(c2ccccn2)CC1 | active: 8.2 µM | 

Single records, from the list above:
CC1(C(=O)NCc2ccccc2)CSCC(=O)N1CCOc1ccccc1 (stereo not drawn) in the list: Potency: inconclusive: 14.6 µM [cytotoxic, partial curve, poor fit]
CC(OCC(O)CN1CCN(S(=O)(=O)c2ccc(Cl)cc2)CC1)c1ccc(Cl)cc1 (stereo not drawn) in the list: Potency: inconclusive: 14.6 µM [cytotoxic, partial curve]
N#Cc1ccc(COn2nnc3ccccc32)cc1 in the list: activity change, negative = cytotoxicity: inactive: -13.1%
CCOC(=O)c1c(C)c(C(=O)NCCCN2CCCC2=O)c(C)n1CC in the list: Potency: inconclusive: 11.6 µM [cytotoxic, partial curve]
